Publication PMC4199516

Key:
Assay in all cases: two-hybrid; yeast two-hybrid; proteins fused to either the DNA binding domain (DB) or the activation domain (AD) of GAL4; interactions scored by growth on SC-Leu-Trp-Ade plates; similar results with different combinations of yeast strains and plasmids
MRT-2/Rad1 (C. elegans) = target: T1, MRT-2/Rad1 (C. elegans) (UniProt G5EC44)
T1 sequence: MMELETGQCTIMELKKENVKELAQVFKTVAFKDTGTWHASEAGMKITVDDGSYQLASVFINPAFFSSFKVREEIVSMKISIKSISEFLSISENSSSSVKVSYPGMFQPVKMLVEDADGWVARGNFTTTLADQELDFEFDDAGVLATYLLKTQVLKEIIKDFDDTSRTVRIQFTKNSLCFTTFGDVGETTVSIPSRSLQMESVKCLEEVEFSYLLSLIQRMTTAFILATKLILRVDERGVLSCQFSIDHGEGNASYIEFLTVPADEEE

[1] = target: T2, CLK-2 (S. cerevisiae Tel2p ortholog) (C. elegans) (UniProt Q95YE9)
T2 sequence: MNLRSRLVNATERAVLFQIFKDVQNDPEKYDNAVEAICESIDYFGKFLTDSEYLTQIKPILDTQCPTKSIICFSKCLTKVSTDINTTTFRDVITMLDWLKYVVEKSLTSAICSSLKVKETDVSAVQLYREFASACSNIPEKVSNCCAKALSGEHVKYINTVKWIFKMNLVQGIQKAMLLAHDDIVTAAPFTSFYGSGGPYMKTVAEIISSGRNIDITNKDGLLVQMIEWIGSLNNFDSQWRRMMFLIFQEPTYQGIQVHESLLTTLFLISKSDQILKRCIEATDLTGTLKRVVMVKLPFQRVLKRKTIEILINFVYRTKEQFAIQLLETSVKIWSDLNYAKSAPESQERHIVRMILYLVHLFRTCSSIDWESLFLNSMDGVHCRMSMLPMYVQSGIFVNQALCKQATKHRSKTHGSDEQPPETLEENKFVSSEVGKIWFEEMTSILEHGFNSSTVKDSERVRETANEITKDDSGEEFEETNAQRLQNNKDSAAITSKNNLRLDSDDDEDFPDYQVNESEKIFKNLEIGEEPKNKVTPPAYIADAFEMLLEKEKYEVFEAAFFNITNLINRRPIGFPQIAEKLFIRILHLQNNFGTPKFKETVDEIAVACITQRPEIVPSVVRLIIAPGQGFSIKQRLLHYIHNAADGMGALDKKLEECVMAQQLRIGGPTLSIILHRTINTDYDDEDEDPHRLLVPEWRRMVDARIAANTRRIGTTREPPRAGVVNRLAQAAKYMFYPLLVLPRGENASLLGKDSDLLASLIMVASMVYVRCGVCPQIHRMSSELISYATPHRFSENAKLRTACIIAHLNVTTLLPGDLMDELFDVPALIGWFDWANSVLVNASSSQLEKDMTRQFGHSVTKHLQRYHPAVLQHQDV

[2] = target: T3, HPR-9 (Rad9 homolog) (C. elegans) (UniProt Q95Q27)
T3 sequence: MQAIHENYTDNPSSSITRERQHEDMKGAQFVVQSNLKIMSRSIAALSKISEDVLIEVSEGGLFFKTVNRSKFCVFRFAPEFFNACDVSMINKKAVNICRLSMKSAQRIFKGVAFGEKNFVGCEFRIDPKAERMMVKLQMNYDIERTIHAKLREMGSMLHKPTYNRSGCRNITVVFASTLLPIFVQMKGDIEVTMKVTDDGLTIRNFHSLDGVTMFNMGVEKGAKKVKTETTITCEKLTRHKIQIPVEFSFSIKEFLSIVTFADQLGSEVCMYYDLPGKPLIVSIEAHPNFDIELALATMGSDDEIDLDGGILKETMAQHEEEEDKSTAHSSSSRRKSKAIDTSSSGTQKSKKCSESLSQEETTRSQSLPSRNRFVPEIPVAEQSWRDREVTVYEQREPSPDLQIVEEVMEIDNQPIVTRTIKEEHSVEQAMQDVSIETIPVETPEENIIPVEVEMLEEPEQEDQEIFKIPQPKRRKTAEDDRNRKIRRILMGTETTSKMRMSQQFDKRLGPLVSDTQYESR

binding (MRT-2/Rad1 (C. elegans))	binding [1]	binding [2]	Substance
binds	no binding	no binding	ZTF-8, full length (from UniProt Q9GYG1)
no binding			ZTF-8N (N-terminal truncation, 1-330) (C. elegans) (domain or fragment)

The next lines start with the substance.

Substance	binding (MRT-2/Rad1 (C. elegans))	binding [1]	binding [2]
ZTF-8 with a mutation in the APSES DNA binding domain (SSLCPNA to AAAAAAA) (C. elegans)	no binding		
ZTF-8C (C-terminal truncation, 400-687) (C. elegans) (domain or fragment)	no binding		
ZTF-8M (middle truncation, 270-598) (C. elegans) (domain or fragment)	no binding		

These are yes or no findings as the source states them, for the method shown. For some of these results: A result given as binding can be weak or reduced; the word gives no strength.
